This note sets out measurements from the supplement of paper PMC4635364.

Counter-ions that a name gives are not always drawn. The list shows a part of the results. Repeats in this data set agree poorly, so a single value says little.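 Cells: ReNCell VM human fetal ventral-midbrain neural progenitors, differentiated mitogen-free. Blinded raters compared doublecortin-stained (early neurons) or tyrosine hydroxylase-stained (dopaminergic neurons) images with untreated wells, where 0 means no change. After repeats and both raters were averaged, compounds scoring 2 or above became hits for retesting.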

Assay [1] concerns ReNCell VM. Put plainly: neuronal differentiation score (DCX+ cell fraction vs untreated, manual image score) (score (-3 to 3)); higher = more neuronal differentiation. To be noted: 2 uM, 2 weeks.
In assay [2] the test system is ReNCell VM. Put plainly: dopaminergic neuron differentiation score (TH+ cell fraction vs untreated, manual image score) (score (0 to 3)); higher = more TH+ dopaminergic neuron differentiation. To be noted: 2 uM, 4 weeks, BDNF 10 ng/ml + GDNF 10 ng/ml.

Turning to `CSc1cc2c(cc1C(F)(F)F)N(C(=O)Nc1cccnc1)CC2`, the neuronal differentiation score in the assay with ReNCell VM [1] (library: Tocriscreen) is inactive: 0. The “dopaminergic neuron differentiation score” value in the assay on ReNCell VM [2] (library: Tocriscreen) was inactive: 0.

For `O=c1[nH]c2ccccc2n1CCCN1CCN(C(c2ccccc2)c2ccccc2)CC1` [Oxatomide], in the assay with ReNCell VM [1] (library: LOPAC), the neuronal differentiation score was inactive: 0. The “dopaminergic neuron differentiation score” value in the assay with ReNCell VM [2] (library: LOPAC) was inactive: 0.

For the molecule `CC1=CC2C(CC1=O)C(C)=CCC2C(C)C` (stereo not drawn), in the assay with ReNCell VM [1] (library: Spectrum), the neuronal differentiation score was inactive: 0. Further, the “dopaminergic neuron differentiation score” value with ReNCell VM [2] (library: Spectrum) is inactive: 0.

Regarding `CC(=O)N1CCN(C)CC1` [1-Acetyl-4-methylpiperazine hydrochloride], the neuronal differentiation score with ReNCell VM [1] (library: Tocriscreen) is inactive: 0. For the same molecule, the “dopaminergic neuron differentiation score” value in the assay on ReNCell VM [2] (library: Tocriscreen) is inactive: 0.

As to `COC(=O)[C@@H](N)Cc1ccc(O)c(O)c1` [L-3,4-Dihydroxyphenylalanine methyl ester hydrochloride], the neuronal differentiation score with ReNCell VM [1] (library: LOPAC) is inactive: 0. The “dopaminergic neuron differentiation score” value with ReNCell VM [2] (library: LOPAC) is inactive: 0.

As for `C[C@]1(Cn2ccnn2)[C@H](C(=O)O)N2C(=O)C[C@H]2S1(=O)=O`, the neuronal differentiation score with ReNCell VM [1] (library: Spectrum) is inactive: 0. Besides, the “dopaminergic neuron differentiation score” value in the assay with ReNCell VM [2] (library: Spectrum) is inactive: 0.

Regarding `O=C(c1ccccc1)c1ccc2n1CCC2C(=O)O` (stereo not drawn), in the assay with ReNCell VM [1] (library: Spectrum), the neuronal differentiation score was inactive: 0. For the same molecule, in the assay on ReNCell VM [2] (library: Spectrum), the “dopaminergic neuron differentiation score” value is inactive: 0.

Take `CC(C)(C)C(=O)C(Oc1ccc(Cl)cc1)n1ccnc1` (stereo not drawn): the neuronal differentiation score in the assay on ReNCell VM [1] (library: Spectrum) was inactive: 0. For the same molecule, in the assay with ReNCell VM [2] (library: Spectrum), the “dopaminergic neuron differentiation score” value was inactive: 0.

Regarding `CC(=O)O[C@H]1CC[C@]2(C)[C@H]3CC=C4[C@@H]5CC(C)(C)CC[C@]5(C)CC[C@@]4(C)[C@]3(C)CC[C@H]2C1(C)C` [beta-AMYRIN ACETATE], the neuronal differentiation score in the assay on ReNCell VM [1] (library: Spectrum) was inactive: 0. In the assay on ReNCell VM [2] (library: Spectrum), the “dopaminergic neuron differentiation score” value is inactive: 0.

As to `CCOC(=O)c1ccc(O)cc1`, the neuronal differentiation score in the assay on ReNCell VM [1] (library: Spectrum) was inactive: 0. The “dopaminergic neuron differentiation score” value in the assay on ReNCell VM [2] (library: Spectrum) was inactive: 0.

Regarding `Nc1nnc(-c2cccc(Cl)c2Cl)c(N)n1`, in the assay on ReNCell VM [1] (library: Spectrum), the neuronal differentiation score is inactive: 0. The “dopaminergic neuron differentiation score” value with ReNCell VM [2] (library: Spectrum) was inactive: 0.

With `COC(=O)c1cc(O)c(=O)c2c(O)c(O)ccc2c1`, the neuronal differentiation score in the assay on ReNCell VM [1] (library: Spectrum) was inactive: 0. For the same molecule, the “dopaminergic neuron differentiation score” value with ReNCell VM [2] (library: Spectrum) is inactive: 0.

For the molecule `C[C@@H](O)CN(CCN(C[C@@H](C)O)C[C@@H](C)O)C[C@@H](C)O`, the neuronal differentiation score in the assay with ReNCell VM [1] (library: Spectrum) is inactive: 0. The “dopaminergic neuron differentiation score” value with ReNCell VM [2] (library: Spectrum) was inactive: 0.

As for `NC(=O)OCC(O)COc1ccc(Cl)cc1` (stereo not drawn) [Chlorphensin carbamate], in the assay with ReNCell VM [1] (library: Prestwick), the neuronal differentiation score is inactive: 0. Further, the “dopaminergic neuron differentiation score” value in the assay with ReNCell VM [2] (library: Prestwick) was inactive: 0.
